Experimental findings from patent US20050147555A1 are described below.

Amino acid sequences for entries named in this document (tags omitted). A change or cut given only in a name is not applied to a line headed by its entry. Residues count along the entry.
UniProt P35968, residues 20-1356: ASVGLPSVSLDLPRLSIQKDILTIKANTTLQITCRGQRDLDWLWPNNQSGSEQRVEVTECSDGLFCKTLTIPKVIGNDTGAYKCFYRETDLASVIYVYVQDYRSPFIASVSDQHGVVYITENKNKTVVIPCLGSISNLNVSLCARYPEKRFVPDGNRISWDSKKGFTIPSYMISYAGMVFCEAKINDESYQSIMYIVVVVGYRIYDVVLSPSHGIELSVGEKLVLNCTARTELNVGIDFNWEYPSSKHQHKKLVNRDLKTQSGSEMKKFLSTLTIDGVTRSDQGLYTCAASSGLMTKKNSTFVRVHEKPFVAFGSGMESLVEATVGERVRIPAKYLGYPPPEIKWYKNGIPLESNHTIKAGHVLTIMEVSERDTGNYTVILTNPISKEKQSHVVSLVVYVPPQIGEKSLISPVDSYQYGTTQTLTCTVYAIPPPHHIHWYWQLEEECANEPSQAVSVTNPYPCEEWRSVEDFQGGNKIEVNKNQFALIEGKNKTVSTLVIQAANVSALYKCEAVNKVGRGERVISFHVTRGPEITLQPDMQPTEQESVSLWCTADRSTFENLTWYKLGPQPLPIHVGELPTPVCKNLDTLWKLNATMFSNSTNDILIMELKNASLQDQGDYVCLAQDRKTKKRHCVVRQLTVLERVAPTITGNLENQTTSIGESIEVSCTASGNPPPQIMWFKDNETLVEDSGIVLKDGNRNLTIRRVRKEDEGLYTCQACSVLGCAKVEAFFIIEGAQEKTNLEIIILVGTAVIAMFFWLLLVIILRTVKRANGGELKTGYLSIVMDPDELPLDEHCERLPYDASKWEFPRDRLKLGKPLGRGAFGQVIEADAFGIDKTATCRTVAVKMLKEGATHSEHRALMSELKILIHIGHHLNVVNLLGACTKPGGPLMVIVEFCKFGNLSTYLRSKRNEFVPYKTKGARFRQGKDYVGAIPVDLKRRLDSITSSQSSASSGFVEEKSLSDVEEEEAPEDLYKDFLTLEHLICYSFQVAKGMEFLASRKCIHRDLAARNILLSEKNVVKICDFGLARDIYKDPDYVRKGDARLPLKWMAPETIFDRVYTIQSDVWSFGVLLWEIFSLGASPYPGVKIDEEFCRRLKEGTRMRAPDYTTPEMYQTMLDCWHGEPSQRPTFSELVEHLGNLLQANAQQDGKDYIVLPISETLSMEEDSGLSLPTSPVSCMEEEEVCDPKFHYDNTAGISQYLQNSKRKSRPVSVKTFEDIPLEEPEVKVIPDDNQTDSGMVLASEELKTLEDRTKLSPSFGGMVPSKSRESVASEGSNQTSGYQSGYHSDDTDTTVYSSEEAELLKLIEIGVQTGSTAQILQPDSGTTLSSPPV
UniProt P15692: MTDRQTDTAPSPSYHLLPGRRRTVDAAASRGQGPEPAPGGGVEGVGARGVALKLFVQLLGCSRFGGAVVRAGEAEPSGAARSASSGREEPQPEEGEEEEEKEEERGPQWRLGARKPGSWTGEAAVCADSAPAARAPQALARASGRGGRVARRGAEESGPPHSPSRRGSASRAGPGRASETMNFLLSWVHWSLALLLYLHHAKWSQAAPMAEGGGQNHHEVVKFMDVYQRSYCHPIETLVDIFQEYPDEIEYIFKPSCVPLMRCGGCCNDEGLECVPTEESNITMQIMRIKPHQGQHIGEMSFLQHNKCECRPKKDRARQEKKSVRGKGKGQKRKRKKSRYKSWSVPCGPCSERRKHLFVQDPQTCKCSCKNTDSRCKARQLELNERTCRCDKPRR

In assay [1] the target is KDR (VEGFR-2, Flk-1), full-length receptor on cells (human) (UniProt P35968). The experiment in a line: peptide-conjugated microbubbles on KDR-transfected 293H cells in 50% human serum.
The target is the same in assay [2]. The experiment in a line: peptide-conjugated microbubbles on KDR- and mock-transfected 293H cells in 50% human serum, percent of surface covered.
The target in assay [3] is T1, KDR/VEGF complex on KDR-transfected 293H cells (human) (UniProt P35968+P15692). The experiment in a line: peptide/125I-streptavidin complex on KDR- and mock-transfected 293H cells with VEGF.
In assay [4] the target is T1, KDR/VEGF complex on KDR-transfected 293H cells (human). Briefly: total binding of the peptide/125I-streptavidin complex in the presence of VEGF to mock- and KDR-transfected 293H cells.

No constants are given. Whether binding was seen depends on the method and setting. Some binding calls cover weakened binding; strength is not graded here.

B1: mixed monomers (P6 derivative and P12 derivative in equal quantities) conjugated to microbubbles (peptide)
peptide 1: GDSRVCWEDSWGGEVCFRYDP
peptide 2: AGPTWCEDDWYYCWLFGT
modifications: joined to the microbubble
As to B1, the binding entry in assay [1] and in assay [2] was “binds” each time.

B2: P30-XB complex with 125I-streptavidin (peptide)
peptide: AGPGPCKGYMPHQCWYMGTGGGK
modifications: N-acetyl; C-terminal Lys N-epsilon Biotin-JJ; C-terminal amide
Turning to B2, the binding result in assay [3] and in assay [4] was “binds” each time.
